Assay results as given in PMC6331727.
Numbering of substitutions follows the chain as printed. Names and notes keep the numbering of the source. No constants are given. Whether binding was seen depends on the method and setting. Binding seen in cells or lysates may run through a third protein. Binding calls can cover weak binding; strength is not graded here. Values belong to the molecule of their own block, whether it stands above or below them.

Experiments:
[1] = target: T1, Human Prominin-1 K138Q mutant (human) (UniProt O43490); assay: co-IP; immunoisolation with anti-CD133 (AC133) magnetic MicroBeads from pre-cleared 0.2% Triton X-100 lysate of Prom1-transfected MDCK cells, 1.5 h at 4°C; anti-FITC MicroBeads as negative control; immunoblot for Prom1 and Arl13b, ratio quantified
T1 sequence: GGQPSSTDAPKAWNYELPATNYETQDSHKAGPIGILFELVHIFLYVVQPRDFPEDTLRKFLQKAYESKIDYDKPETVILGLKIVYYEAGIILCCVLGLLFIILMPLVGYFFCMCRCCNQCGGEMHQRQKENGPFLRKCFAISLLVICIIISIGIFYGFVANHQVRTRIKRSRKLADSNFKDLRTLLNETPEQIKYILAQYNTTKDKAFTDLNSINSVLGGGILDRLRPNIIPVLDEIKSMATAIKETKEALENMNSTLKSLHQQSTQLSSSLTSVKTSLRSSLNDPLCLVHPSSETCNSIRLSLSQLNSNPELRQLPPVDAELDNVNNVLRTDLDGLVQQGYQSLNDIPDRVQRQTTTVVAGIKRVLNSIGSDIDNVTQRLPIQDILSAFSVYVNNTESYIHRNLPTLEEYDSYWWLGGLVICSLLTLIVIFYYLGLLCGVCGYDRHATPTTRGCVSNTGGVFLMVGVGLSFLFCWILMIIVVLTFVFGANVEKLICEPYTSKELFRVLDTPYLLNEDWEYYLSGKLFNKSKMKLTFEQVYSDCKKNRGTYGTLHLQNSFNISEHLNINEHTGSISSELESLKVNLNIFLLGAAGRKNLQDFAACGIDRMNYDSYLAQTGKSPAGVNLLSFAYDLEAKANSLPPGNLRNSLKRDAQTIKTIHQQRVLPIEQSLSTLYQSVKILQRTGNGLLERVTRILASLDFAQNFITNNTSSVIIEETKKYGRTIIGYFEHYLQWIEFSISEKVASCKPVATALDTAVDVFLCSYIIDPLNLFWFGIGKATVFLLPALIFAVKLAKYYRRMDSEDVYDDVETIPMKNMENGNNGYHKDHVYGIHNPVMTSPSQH

[2] = target: T2, Human Prominin-1 (Prom1/CD133), splice variant s2 (human) (UniProt O43490); assay: as above
T2 sequence: T1 sequence with Q119K

[3] = target: ADP-ribosylation factor-like protein 13B (Arl13b) (dog (endogenous in MDCK)); assay: co-IP; immunoisolation with anti-Arl13b pAb and uMACS Protein A MicroBeads from pre-cleared 0.2% Triton X-100 lysate of Prom1-transfected MDCK cells, 4°C; immunoblot for Prom1 and Arl13b

binding [1]: binds
binding [2]: binds
Molecule: ADP-ribosylation factor-like protein 13B (Arl13b) (dog (endogenous in MDCK))

binding [3]: binds
B1: Human Prominin-1 (Prom1/CD133), splice variant s2 (protein, UniProt O43490 20-865)
chain: T1 sequence with Q119K

binding [3]: binds
B2: Human Prominin-1 K138Q mutant (protein, UniProt O43490 20-865)
chain: T1 sequence
